Columns and labels:
Format in all cases: cell-based
[1] = tested on: acetylated histone H3 (Ac-H3) in A2780s cells; assay: Induction of histone H3 acetylation in A2780s cells (cytoblot); settings: Homo sapiens, 6 h treatment
Method: (§1) Specific operation: After the treatment, washing each well once with 50-100 μl of cold TBS buffer [with the composition as 20 mM Tris (trismetyl aminomethane), pH7.5] and fixing it with 100 μL of 4% pre-cooled paraformaldehyde at 4° C. for 1 h; after paraformaldehyde is washed off, adding 50 μL of pre-cooled methyl alcohol in each well and evenly spreading at 4° C. for 5 min; after methyl alcohol is washed off, washing it once with the TBS buffer containing 3% skim milk powder and adding 50 μL of antibody fluid, oscillating it slightly at 4° C. and incubating overnight. […] Discarding the antibody fluid in the next day and washing it twice with TBS buffer; then adding enhanced chemiluminescence (ECL) liquid (which is purchased from Abbkine Company), determining the chemiluminescence intensity with a microplate reader, and analyzing the result data with the software GraphPad Prism. […]

[2] = tested on: hct116 cells (colon cancer); assay: Cell proliferation inhibition, hct116 (MTT); settings: Homo sapiens, HCT-116; 96 h incubation
Method: (§2) The tumor cell lines are purchased from American Type Culture Collection (ATCC) and cultivated to the status of logarithmic growth as per the cultural method recommended by ATCC. The cells in logarithmic phase are spread on a 96 well plate as per 2000-3000/well; as for anchorage-dependent cells, the compound should be added in the test wells at certain concentration for incubation for 96 h after cell adherence. Determining cell proliferation activities with method MTT for tumor cells representing solid tumor model and with method cck-8 for tumor cells representing hematologic tumor model, and analyzing the result data with the software GraphPad Prism.
(§3) Calculating the value of IC50 as per the formula: Y=background data+(top data−background data)/(1+10^((Log IC50−X)*rate of curve)). Where, Y refers to the inhibition ratio (%) and X refers to the compound concentration.

[3] = tested on: acetylated Ac-α-tubulin in A2780s cells; assay: Induction of α-tubulin acetylation in A2780s cells (cytoblot); settings: Homo sapiens, 6 h treatment, read-out: Ac-Tub EC50
Method: as §1

[4] = tested on: MV4-11 cells (acute myeloid leukemia); assay: Cell proliferation inhibition, MV4-11 (cck-8); settings: Homo sapiens, 96 h incubation
Method: as §2, §3

[5] = tested on: A2780s cells (ovarian cancer); assay: Cell proliferation inhibition, A2780s (MTT); settings: Homo sapiens, 96 h incubation
Method: as §2, §3

Compound: O=C(CCCCCCC(=O)Nc1ccccc1)NO [SAHA, vorinostat, reference compound]
- EC50 [1]: > 200 nM
- IC50 [2]: 100 to 1000 nM
- EC50 [3]: > 200 nM
- IC50 [4]: 100 to 1000 nM
- IC50 [5]: > 1000 nM
